Experimental data: PubChem BioAssay AID1259425 (University of Nebraska Medical Center, 2018)

Test: 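Compare each knockdown with KSR1 silencing using changes in marker transcripts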 (primary screen)
System: HCT116 human colon cancer cells
Reagents: siRNA pool against human genes, 50 nM siRNA
Detection: 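mRNA of six signature genes measured together by branched-DNA assay after 50 nM siRNA pool, blank removed, divided by geometric mean of two housekeeping genes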
Direction: BNIP3L mRNA: higher = more BNIP3L transcript after knockdown; NDRG1 mRNA: higher = more NDRG1 transcript after knockdown; BNIP3 mRNA: higher = more BNIP3 transcript after knockdown
The whole screen tested about 14,000 reagents; below is a part drawn at random. Not all columns of the deposit are shown. Not given: the time to read-out.

| target gene | PubChem SID | BNIP3L mRNA, set 1 | NDRG1 mRNA, set 1 | BNIP3 mRNA, set 1 |
| --- | --- | --- | --- | --- |
| COQ6 (coenzyme Q6, monooxygenase) | SID364004952 | 0.116 | 0.168 | 0.377 |
| WDR54 (WD repeat domain 54) | SID364003775 | 0.224 | 0.195 | 0.368 |
| NICN1 (nicolin 1, tubulin polyglutamylase complex subunit) | SID364003902 | 0.219 | 0.27 | 0.307 |
| RIOX1 (ribosomal oxygenase 1) | SID364002942 | 0.245 | 0.164 | 0.354 |
| LRMDA (leucine rich melanocyte differentiation associated) | SID364003744 | 0.207 | 0.27 | 0.388 |
| ABCF1 (ATP binding cassette subfamily F member 1) | SID363992387 | 0.0747 | 0.185 | 0.254 |
| HKDC1 (hexokinase domain containing 1) | SID364003263 | 0.164 | 0.149 | 0.379 |
| NDUFB9 (NADH:ubiquinone oxidoreductase subunit B9) | SID363995944 | 0.103 | 0.191 | 0.269 |
| TUBGCP2 (tubulin gamma complex component 2) | SID363997445 | 0.104 | 0.0865 | 0.302 |
| PRSS12 (serine protease 12) | SID363994697 | 0.135 | 0.255 | 0.308 |
| INKA2 (inka box actin regulator 2) | SID364001399 | 0.0878 | 0.129 | 0.365 |
| STX8 (syntaxin 8) | SID363995804 | 0.126 | 2 | 0.294 |
| INTS14 (integrator complex subunit 14) | SID364003452 | 0.121 | 0.261 | 0.47 |
| CLEC4A (C-type lectin domain family 4 member A) | SID363999933 | 0.0487 | 0.151 | 0.376 |
| KCNA4 (potassium voltage-gated channel subfamily A member 4) | SID363993433 | 0.0835 | 0.318 | 0.239 |
| CCL27 (C-C motif chemokine ligand 27) | SID363997450 | 0.0874 | 0.212 | 0.278 |
| USPL1 (ubiquitin specific peptidase like 1) | SID363996678 | 0.0856 | 0.545 | 0.225 |
| SLC20A1 | SID363996321 | 0.0592 | 0.0462 | 0.284 |
| MBP (myelin basic protein) | SID363993565 | 0.203 | 2.27 | 0.421 |
| OLIG2 (oligodendrocyte transcription factor 2) | SID363996684 | 0.206 | 0.226 | 0.332 |
| KIT (KIT proto-oncogene, receptor tyrosine kinase) | SID363991557 | 0.131 | 0.433 | 0.558 |
| C8G (complement C8 gamma chain) | SID363991924 | 0.0816 | 0.0602 | 0.298 |
| IP6K3 (inositol hexakisphosphate kinase 3) | SID364004452 | 0.154 | 0.398 | 0.592 |
| SYPL1 (synaptophysin like 1) | SID363997525 | 0.11 | 0.185 | 0.26 |
| HORMAD1 (HORMA domain containing 1) | SID364003789 | 0.324 | 0.327 | 0.476 |
| SEMA4G (semaphorin 4G) | SID364000618 | 0.114 | 0.148 | 0.517 |
| CLDN4 (claudin 4) | SID363992588 | 0.0669 | 0.12 | 0.335 |
| ACOT2 (acyl-CoA thioesterase 2) | SID363997587 | 0.0665 | 0.291 | 0.425 |
| SQSTM1 (sequestosome 1) | SID363994958 | 0.09 | 0.108 | 0.468 |
| TMEM109 (transmembrane protein 109) | SID364002742 | 0.0773 | 0.194 | 0.337 |
| NAGPA | SID363999985 | 0.0923 | 0.0922 | 0.269 |
| SCNN1A (sodium channel epithelial 1 subunit alpha) | SID363992335 | 0.118 | 0.633 | 0.508 |
| ITGA7 (integrin subunit alpha 7) | SID363993407 | 0.122 | 0.174 | 0.283 |
| RTF2 (replication termination factor 2) | SID364000091 | 0.048 | 0.169 | 0.255 |
| RBBP8 (RB binding protein 8, endonuclease) | SID363994049 | 0.189 | 1.03 | 0.262 |
| ADCY6 (adenylate cyclase 6) | SID363999389 | 0.0798 | 0.243 | 0.219 |
| TPCN2 (two pore segment channel 2) | SID364004596 | 0.109 | 0.107 | 0.299 |
| DNAJC3 (DnaJ heat shock protein family (Hsp40) member C3) | SID363997083 | 0.118 | 0.113 | 0.333 |
| HOXA9 (homeobox A9) | SID363993346 | 0.143 | 0.144 | 0.352 |
| EIF4EBP2 | SID363995106 | 0.116 | 0.0852 | 0.198 |
| SH2B3 (SH2B adaptor protein 3) | SID363996377 | 0.077 | 0.403 | 0.405 |
| PPP1R3B (protein phosphatase 1 regulatory subunit 3B) | SID364002909 | 0.0806 | 0.224 | 0.319 |
| PLPP1 (phospholipid phosphatase 1) | SID363994780 | 0.142 | 0.188 | 0.277 |
| GPATCH1 (G-patch domain containing 1) | SID364000716 | 0.221 | 0.71 | 0.291 |
| ST3GAL6 (ST3 beta-galactoside alpha-2,3-sialyltransferase 6) | SID363996943 | 0.074 | 0.252 | 0.244 |
| PDK4 (pyruvate dehydrogenase kinase 4) | SID363993780 | 0.11 | 0.128 | 0.406 |
| CNR2 (cannabinoid receptor 2) | SID363993055 | 0.065 | 0.157 | 0.319 |
| NRL (neural retina leucine zipper) | SID363997003 | 0.106 | 0.0857 | 0.222 |
| SH3BGR (SH3 domain binding glutamate rich protein) | SID363997984 | 0.178 | 0.501 | 0.282 |
| CNOT12 (CCR4-NOT transcription complex subunit 12) | SID364004370 | 0.176 | 0.364 | 0.215 |

Reformatted: entries from further up
ITGA7 (integrin subunit alpha 7) [SID363993407]
- BNIP3L mRNA, set 1: 0.122
- NDRG1 mRNA, set 1: 0.174
- BNIP3 mRNA, set 1: 0.283

RTF2 (replication termination factor 2) [SID364000091]
- BNIP3L mRNA, set 1: 0.048
- NDRG1 mRNA, set 1: 0.169
- BNIP3 mRNA, set 1: 0.255

RBBP8 (RB binding protein 8, endonuclease) [SID363994049]
- BNIP3L mRNA, set 1: 0.189
- NDRG1 mRNA, set 1: 1.03
- BNIP3 mRNA, set 1: 0.262

ADCY6 (adenylate cyclase 6) [SID363999389]
- BNIP3L mRNA, set 1: 0.0798
- NDRG1 mRNA, set 1: 0.243
- BNIP3 mRNA, set 1: 0.219

TPCN2 (two pore segment channel 2) [SID364004596]
- BNIP3L mRNA, set 1: 0.109
- NDRG1 mRNA, set 1: 0.107
- BNIP3 mRNA, set 1: 0.299

DNAJC3 (DnaJ heat shock protein family (Hsp40) member C3) [SID363997083]
- BNIP3L mRNA, set 1: 0.118
- NDRG1 mRNA, set 1: 0.113
- BNIP3 mRNA, set 1: 0.333
